Experimental findings from patent US20040234982A1 (published 2004) are described below.

Results are given in words; binding and its absence hold for the method and conditions named. Some binding calls cover weakened binding; strength is not graded here. Tags and fused reporters may be left off the sequences shown.

The target of this assay is Mouse UGRP1 type B polypeptide tagged with a c-myc epitope at the carboxyl-terminus, expressed in COS-1 cells (mouse) (UniProt Q920H1). The assay is described as follows: anti-c-myc immunoblot of COS-1 cell lysate and conditioned medium, non-reducing vs reducing SDS-PAGE; homodimer. (A western blot detects proteins with antibodies after separation by electrophoresis.)

B1: Mouse UGRP1 type B polypeptide tagged with a c-myc epitope at the carboxyl-terminus, expressed in COS-1 cells (protein, UniProt Q920H1-3 22-113, looked up, not shown: small tags and cut ends)
chain: LLINRLPVVDKLPVPLDDIIPSFDPLKMLLKTLGISVEHLVTGLKKCVDELGPEASEAVKKLLVIIICSYFPGRSLCYVNNLPSFEALSHLV
Consider B1, for which the binding entry was “binds”.
